The values below come from PMC4494903.

By UniProt entry, the sequences of proteins in these tests, tags left out. Where a name states a change or a piece, a line headed by the entry shows the natural chain unless it says otherwise. Residues count along the entry.
UniProt Q9GZV5: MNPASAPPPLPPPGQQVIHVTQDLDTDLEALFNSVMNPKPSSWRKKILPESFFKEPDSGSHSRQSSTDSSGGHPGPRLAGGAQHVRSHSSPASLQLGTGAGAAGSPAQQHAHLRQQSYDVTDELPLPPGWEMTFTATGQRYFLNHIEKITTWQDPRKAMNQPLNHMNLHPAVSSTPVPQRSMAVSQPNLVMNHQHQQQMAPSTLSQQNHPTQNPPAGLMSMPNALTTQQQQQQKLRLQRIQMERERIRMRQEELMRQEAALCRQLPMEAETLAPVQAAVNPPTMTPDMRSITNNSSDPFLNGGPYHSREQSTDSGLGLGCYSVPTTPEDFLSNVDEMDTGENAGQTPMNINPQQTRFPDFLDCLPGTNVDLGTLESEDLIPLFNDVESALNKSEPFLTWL
UniProt Q16665: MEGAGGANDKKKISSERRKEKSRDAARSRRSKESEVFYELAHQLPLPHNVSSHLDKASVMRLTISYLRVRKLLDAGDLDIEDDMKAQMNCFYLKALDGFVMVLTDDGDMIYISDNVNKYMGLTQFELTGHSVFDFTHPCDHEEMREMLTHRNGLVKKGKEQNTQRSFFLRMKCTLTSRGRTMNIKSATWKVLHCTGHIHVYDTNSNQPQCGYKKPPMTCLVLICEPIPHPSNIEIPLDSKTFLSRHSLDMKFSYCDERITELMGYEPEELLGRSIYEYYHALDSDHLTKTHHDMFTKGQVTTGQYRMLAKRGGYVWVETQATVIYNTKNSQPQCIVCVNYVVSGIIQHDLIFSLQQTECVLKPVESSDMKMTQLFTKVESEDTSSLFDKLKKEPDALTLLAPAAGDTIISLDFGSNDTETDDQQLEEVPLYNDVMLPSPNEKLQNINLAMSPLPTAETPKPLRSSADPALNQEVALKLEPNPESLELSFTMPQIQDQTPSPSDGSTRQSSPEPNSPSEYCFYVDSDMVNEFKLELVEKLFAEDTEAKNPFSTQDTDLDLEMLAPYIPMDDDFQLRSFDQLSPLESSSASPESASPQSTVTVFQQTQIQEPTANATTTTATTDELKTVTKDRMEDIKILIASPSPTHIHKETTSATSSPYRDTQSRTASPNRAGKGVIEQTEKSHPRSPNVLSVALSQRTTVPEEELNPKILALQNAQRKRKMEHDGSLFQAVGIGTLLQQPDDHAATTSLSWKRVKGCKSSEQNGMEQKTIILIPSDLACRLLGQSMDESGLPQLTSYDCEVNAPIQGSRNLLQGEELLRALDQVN
GST-HIF-1α (531-826) fusion protein: residues 531-826 of Q16665

These are yes or no findings as the source states them, for the method shown. In cells and extracts the contact can be indirect. Some entries that bind do so weakly or less than the wild type.

Assay [1] deals with transcriptional co-activator with PDZ-binding motif (TAZ) (human (endogenous in MDA-MB-231)) (UniProt Q9GZV5). The assay can be described thus: co-IP; endogenous proteins; 0.75 mg whole cell lysate (RIPA buffer) of MDA-MB-231 cells exposed to 1% O2 for 4 h, anti-HIF-1α, anti-TAZ or IgG with protein G-Sepharose overnight at 4°C; washed five times; immunoblot for HIF-1α and TAZ.
Assay [2] addresses GST-HIF-1α (531-826) fusion protein (UniProt Q16665). The assay can be described thus: pull-down; equal molar amounts of GST or GST fusion protein immobilized on glutathione-Sepharose 4B beads, incubated overnight with 2 mg whole cell lysate of MDA-MB-231 cells exposed to 1% O2 for 24 h; washed five times; immunoblot with anti-TAZ and anti-GST; only the target purified. In general terms: In western blotting, separated proteins are transferred to a membrane and probed.

Assay [3] has as its target Hypoxia-inducible factor 1α (HIF-1α) (human (endogenous in MDA-MB-231)) (UniProt Q16665). As to the kind of experiment: co-IP; endogenous proteins; 0.75 mg whole cell lysate (RIPA buffer) of MDA-MB-231 cells exposed to 1% O2 for 4 h, anti-HIF-1α, anti-TAZ or IgG with protein G-Sepharose overnight at 4°C; washed five times; immunoblot for HIF-1α and TAZ.

With “Hypoxia-inducible factor 1α (HIF-1α) (from UniProt Q16665 1-826)”, the binding entry in assay [1] is recorded as “binds”.

For the substance “transcriptional co-activator with PDZ-binding motif (TAZ) (from UniProt Q9GZV5 1-400)”, the binding result in assay [2] and in assay [3] was “binds” each time.
